Source: the supplement of paper PMC12823440, “Inhibitors supercharge kinase turnover through native proteolytic circuits” (Nature, 2025)
Where a name gives a salt, the structure may show the parent alone. Some of the results follow. The calls rarely recur for the same compound in another form.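 Kinases were expressed as nanoluciferase fusions in K562 cells and luminescence was read every 4 h between 2 and 18 h as percent of control, DMSO set to 100% and a positive control to 0%. A time point counts as decreased when the signal drops significantly (2 sigma). The hit call is the authors' own, does not follow from the count of time points alone, and its rule is not shown.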

By UniProt entry, the sequences of proteins in these tests, tags left out. Where a name states a change or a piece, a line headed by the entry shows the natural chain unless it says otherwise.
UniProt P07949, whole entry, looked up: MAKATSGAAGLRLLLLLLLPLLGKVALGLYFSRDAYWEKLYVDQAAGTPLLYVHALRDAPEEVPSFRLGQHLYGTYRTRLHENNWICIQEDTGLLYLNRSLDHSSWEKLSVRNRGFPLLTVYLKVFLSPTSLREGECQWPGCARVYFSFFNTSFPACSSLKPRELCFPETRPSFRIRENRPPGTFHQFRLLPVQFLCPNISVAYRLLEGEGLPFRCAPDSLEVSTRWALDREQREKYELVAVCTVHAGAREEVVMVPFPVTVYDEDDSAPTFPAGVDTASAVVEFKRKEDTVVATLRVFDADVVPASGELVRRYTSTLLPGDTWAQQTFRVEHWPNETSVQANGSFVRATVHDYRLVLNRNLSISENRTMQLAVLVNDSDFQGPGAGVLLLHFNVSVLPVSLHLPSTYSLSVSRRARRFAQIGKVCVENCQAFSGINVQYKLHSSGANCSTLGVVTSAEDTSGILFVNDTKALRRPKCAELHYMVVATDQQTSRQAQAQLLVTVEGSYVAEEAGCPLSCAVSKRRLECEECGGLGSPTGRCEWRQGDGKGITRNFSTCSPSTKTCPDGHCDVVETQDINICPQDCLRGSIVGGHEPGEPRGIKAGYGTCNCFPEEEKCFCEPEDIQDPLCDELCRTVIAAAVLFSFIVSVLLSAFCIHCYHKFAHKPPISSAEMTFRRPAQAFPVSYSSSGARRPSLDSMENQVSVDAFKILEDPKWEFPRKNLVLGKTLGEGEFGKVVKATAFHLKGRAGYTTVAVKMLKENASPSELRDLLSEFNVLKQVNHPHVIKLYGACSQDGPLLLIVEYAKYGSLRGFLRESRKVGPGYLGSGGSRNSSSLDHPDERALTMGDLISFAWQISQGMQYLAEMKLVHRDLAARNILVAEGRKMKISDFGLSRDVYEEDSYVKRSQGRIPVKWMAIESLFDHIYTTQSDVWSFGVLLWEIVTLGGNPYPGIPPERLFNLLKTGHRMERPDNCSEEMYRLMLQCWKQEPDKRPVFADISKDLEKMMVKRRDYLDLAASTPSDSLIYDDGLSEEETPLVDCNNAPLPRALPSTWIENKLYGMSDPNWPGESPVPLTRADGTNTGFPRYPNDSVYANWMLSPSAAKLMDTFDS
UniProt P07949, whole entry M918T, looked up: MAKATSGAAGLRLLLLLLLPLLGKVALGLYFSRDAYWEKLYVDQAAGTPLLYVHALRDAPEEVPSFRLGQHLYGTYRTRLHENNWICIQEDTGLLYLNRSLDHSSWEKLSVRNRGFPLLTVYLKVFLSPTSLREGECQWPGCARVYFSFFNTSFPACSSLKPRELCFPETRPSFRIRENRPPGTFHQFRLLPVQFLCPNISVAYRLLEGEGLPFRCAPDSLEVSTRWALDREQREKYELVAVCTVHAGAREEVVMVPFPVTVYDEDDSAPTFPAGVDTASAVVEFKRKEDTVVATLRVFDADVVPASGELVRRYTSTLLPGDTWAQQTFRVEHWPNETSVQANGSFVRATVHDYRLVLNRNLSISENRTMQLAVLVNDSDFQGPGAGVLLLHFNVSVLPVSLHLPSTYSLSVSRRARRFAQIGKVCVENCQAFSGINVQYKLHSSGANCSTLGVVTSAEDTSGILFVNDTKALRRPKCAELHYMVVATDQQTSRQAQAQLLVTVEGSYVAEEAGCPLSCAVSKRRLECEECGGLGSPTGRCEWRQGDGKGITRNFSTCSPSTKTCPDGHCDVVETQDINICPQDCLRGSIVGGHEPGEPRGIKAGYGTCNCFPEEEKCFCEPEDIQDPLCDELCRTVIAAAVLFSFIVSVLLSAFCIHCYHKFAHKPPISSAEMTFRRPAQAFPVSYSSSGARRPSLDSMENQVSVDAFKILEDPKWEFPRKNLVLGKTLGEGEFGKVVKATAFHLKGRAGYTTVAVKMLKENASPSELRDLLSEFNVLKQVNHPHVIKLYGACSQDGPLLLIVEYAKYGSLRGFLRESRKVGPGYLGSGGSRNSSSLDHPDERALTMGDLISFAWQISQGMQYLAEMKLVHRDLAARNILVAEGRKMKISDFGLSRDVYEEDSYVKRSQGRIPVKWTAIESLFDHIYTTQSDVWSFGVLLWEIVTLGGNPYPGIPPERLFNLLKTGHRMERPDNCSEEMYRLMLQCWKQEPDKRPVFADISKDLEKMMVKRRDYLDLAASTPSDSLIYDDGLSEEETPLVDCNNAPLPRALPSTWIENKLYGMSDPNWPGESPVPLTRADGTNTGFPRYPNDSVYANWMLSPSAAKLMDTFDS
UniProt Q13546: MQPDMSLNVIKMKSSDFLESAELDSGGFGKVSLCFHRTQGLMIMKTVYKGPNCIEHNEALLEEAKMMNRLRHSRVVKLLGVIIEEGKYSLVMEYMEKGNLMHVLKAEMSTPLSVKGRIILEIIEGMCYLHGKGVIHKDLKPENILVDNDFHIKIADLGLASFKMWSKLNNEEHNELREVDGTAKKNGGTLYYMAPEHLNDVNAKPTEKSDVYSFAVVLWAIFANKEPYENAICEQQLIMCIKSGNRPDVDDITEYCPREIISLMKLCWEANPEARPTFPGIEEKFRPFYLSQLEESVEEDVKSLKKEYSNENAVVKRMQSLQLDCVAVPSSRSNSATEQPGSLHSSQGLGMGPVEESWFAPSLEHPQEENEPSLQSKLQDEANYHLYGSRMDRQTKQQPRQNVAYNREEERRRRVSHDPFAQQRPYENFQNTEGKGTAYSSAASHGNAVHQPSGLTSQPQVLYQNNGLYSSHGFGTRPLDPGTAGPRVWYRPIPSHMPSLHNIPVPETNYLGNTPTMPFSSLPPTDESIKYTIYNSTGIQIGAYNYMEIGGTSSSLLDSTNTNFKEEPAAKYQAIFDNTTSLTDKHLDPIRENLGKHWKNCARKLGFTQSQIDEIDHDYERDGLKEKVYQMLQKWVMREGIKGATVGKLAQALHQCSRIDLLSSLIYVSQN
UniProt Q9NYA1, whole entry: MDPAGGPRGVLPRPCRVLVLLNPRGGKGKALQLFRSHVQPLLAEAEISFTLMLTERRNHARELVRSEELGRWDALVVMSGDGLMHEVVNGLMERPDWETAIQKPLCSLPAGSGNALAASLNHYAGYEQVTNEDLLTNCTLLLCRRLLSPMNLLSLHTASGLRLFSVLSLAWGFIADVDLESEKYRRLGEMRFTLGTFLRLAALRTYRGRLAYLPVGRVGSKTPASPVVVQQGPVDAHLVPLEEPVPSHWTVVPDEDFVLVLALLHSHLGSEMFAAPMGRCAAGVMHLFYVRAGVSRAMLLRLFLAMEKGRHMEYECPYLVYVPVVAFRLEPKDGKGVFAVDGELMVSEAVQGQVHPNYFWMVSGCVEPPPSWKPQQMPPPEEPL
UniProt Q9Y6E0: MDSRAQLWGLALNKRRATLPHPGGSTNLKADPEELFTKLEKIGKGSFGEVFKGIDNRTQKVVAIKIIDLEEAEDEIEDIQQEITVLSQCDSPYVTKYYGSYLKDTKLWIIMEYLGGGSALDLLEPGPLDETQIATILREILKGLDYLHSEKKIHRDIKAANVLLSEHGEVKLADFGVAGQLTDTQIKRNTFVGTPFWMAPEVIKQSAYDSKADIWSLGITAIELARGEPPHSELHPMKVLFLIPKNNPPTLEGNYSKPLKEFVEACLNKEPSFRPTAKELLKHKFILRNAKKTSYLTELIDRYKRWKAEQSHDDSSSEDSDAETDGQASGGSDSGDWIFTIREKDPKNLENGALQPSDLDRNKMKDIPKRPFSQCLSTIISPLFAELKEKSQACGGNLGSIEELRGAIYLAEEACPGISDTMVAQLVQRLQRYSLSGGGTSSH
UniProt P29597: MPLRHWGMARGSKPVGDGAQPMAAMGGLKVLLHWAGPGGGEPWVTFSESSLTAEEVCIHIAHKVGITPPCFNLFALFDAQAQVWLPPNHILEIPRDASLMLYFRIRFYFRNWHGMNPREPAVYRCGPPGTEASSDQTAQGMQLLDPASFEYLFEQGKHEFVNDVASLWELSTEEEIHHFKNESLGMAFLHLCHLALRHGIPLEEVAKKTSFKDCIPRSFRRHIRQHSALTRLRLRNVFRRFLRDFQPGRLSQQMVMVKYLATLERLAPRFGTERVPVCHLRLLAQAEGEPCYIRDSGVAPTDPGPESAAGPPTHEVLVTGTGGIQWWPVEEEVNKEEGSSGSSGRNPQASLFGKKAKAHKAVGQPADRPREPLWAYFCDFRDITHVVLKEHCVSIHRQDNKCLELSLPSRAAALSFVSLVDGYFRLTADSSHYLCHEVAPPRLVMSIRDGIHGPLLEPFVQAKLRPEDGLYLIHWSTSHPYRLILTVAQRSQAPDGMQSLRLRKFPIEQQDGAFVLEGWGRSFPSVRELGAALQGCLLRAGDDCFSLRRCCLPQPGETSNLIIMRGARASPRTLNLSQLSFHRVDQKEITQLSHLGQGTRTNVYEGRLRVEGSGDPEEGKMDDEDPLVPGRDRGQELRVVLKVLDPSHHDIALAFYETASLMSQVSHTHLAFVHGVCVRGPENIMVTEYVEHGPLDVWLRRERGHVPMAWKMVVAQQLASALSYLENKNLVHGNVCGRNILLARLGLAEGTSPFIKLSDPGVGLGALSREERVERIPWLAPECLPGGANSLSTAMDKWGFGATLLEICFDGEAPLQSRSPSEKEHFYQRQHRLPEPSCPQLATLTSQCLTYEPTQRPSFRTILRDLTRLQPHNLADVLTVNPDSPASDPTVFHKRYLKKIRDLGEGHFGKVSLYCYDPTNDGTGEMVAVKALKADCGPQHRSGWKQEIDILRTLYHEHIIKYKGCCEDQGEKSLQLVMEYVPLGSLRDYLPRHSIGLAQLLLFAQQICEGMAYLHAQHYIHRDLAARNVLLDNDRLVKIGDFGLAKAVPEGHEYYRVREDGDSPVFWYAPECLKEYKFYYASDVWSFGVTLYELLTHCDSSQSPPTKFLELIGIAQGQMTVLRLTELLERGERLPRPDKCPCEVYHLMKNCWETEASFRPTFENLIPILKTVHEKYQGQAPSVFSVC
UniProt Q6PHR2: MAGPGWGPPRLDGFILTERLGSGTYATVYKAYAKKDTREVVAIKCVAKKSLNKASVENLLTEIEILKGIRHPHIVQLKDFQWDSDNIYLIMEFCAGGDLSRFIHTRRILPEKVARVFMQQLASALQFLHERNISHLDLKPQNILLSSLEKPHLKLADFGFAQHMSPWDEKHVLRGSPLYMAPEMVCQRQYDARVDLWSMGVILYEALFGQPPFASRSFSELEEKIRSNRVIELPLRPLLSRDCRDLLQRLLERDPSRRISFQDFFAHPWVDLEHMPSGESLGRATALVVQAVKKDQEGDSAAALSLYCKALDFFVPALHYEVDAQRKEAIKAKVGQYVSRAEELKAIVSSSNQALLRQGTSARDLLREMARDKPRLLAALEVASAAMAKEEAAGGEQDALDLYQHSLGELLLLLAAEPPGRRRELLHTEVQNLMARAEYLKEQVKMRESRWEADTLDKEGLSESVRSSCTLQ
UniProt P07947, whole entry, looked up: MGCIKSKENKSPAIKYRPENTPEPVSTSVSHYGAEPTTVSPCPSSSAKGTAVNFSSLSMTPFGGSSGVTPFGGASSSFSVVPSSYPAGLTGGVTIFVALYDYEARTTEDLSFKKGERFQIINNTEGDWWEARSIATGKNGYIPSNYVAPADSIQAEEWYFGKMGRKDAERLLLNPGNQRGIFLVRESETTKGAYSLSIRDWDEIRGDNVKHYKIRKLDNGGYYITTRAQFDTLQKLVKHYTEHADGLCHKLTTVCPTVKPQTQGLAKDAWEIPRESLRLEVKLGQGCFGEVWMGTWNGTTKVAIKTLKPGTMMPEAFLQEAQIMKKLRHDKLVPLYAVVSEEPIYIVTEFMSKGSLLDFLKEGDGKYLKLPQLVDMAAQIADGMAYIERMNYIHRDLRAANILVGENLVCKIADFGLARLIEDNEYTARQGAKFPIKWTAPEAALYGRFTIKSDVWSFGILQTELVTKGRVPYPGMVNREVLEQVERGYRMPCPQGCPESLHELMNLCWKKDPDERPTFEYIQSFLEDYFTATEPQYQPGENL
UniProt P11802: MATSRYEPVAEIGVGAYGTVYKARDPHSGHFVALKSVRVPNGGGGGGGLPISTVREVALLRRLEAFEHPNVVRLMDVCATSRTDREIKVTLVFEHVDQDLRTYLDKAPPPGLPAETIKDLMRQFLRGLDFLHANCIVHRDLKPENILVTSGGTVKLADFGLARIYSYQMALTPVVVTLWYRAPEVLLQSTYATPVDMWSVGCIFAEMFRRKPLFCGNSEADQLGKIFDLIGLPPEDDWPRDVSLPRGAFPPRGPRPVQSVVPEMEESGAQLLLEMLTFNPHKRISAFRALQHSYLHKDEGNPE
UniProt P50613: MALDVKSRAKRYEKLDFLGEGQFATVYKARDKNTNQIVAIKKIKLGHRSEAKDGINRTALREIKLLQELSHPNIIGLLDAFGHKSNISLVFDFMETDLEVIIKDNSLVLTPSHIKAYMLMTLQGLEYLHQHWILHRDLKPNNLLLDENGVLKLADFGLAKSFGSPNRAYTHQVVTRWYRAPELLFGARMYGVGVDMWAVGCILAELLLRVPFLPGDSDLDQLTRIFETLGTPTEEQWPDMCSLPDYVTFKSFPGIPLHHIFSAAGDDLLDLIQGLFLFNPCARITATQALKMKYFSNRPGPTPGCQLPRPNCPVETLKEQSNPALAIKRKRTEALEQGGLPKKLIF

Tests used:
Conditions in all cases: 10 µM; K562; 2-18 h
RET = RET (UniProt P07949); assay: kinase-Nluc reporter destabilization hit call (1 = scored as downregulated) (binary); higher = compound decreases kinase abundance
[1] = molecular target: RET_M918T (clone: RET_mut) (UniProt P07949); assay: as above
RIOK1 = RIOK1 (UniProt Q9BRS2); assay: as above
RIPK1 = RIPK1 (UniProt Q13546); assay: as above
RIPK2 = RIPK2 (UniProt O43353); assay: as above
ROR2 = ROR2 (UniProt Q01974); assay: as above
RPS6KA1 = RPS6KA1 (UniProt Q15418); assay: as above
SPHK1 = SPHK1 (UniProt Q9NYA1); assay: as above
SRC = SRC (UniProt P12931); assay: as above
STK24 = STK24 (UniProt Q9Y6E0); assay: as above
STK38 = STK38 (UniProt Q15208); assay: as above
SYK = SYK (UniProt P43405); assay: as above
TEC = TEC (UniProt P42680); assay: as above
TYK2 = TYK2 (UniProt P29597); assay: as above
ULK3 = ULK3 (UniProt Q6PHR2); assay: as above
YES1 = YES1 (UniProt P07947); assay: as above
ZAK = ZAK (UniProt Q9NYL2); assay: as above
ZAP70 = ZAP70 (UniProt P43403); assay: as above
CDK4 = CDK4 (UniProt P11802); assay: number of time points (of 4; 2 h point missing) at which kinase-Nluc abundance scored as decreased, DMSO-normalised (count); higher = more persistent destabilization
CDK7 = CDK7 (UniProt P50613); assay: as above

COc1cc2nccc(Nc3cc(OC)c(OC)c(OC)c3)c2cc1OC [GAK inhibitor 49]
3: number of time points (CDK7)
0: number of time points (CDK4)
inactive: kinase-Nluc reporter destabilization hit call (RET) 0 | kinase-Nluc reporter destabilization hit call [1] 0 | kinase-Nluc reporter destabilization hit call (RIOK1) 0 | kinase-Nluc reporter destabilization hit call (RIPK1) 0 | kinase-Nluc reporter destabilization hit call (RIPK2) 0 | kinase-Nluc reporter destabilization hit call (ROR2) 0 | kinase-Nluc reporter destabilization hit call (RPS6KA1) 0 | kinase-Nluc reporter destabilization hit call (SPHK1) 0 | kinase-Nluc reporter destabilization hit call (SRC) 0 | kinase-Nluc reporter destabilization hit call (STK24) 0 | kinase-Nluc reporter destabilization hit call (STK38) 0 | kinase-Nluc reporter destabilization hit call (SYK) 0 | kinase-Nluc reporter destabilization hit call (TEC) 0 | kinase-Nluc reporter destabilization hit call (TYK2) 0 | kinase-Nluc reporter destabilization hit call (ULK3) 0 | kinase-Nluc reporter destabilization hit call (YES1) 0 | kinase-Nluc reporter destabilization hit call (ZAK) 0 | kinase-Nluc reporter destabilization hit call (ZAP70) 0

C[C@H](CCC(=O)NCCS(=O)(=O)O)[C@H]1CC[C@H]2[C@@H]3[C@@H](O)C[C@@H]4C[C@H](O)CC[C@]4(C)[C@H]3CC[C@]12C [Tauroursodeoxycholate (sodium)]
inactive: kinase-Nluc reporter destabilization hit call (RET) 0 | kinase-Nluc reporter destabilization hit call [1] 0 | kinase-Nluc reporter destabilization hit call (RIOK1) 0 | kinase-Nluc reporter destabilization hit call (RIPK1) 0 | kinase-Nluc reporter destabilization hit call (RIPK2) 0 | kinase-Nluc reporter destabilization hit call (ROR2) 0 | kinase-Nluc reporter destabilization hit call (RPS6KA1) 0 | kinase-Nluc reporter destabilization hit call (SPHK1) 0 | kinase-Nluc reporter destabilization hit call (SRC) 0 | kinase-Nluc reporter destabilization hit call (STK24) 0 | kinase-Nluc reporter destabilization hit call (STK38) 0 | kinase-Nluc reporter destabilization hit call (SYK) 0 | kinase-Nluc reporter destabilization hit call (TEC) 0 | kinase-Nluc reporter destabilization hit call (TYK2) 0 | kinase-Nluc reporter destabilization hit call (ULK3) 0 | kinase-Nluc reporter destabilization hit call (YES1) 0 | kinase-Nluc reporter destabilization hit call (ZAK) 0 | kinase-Nluc reporter destabilization hit call (ZAP70) 0
0: number of time points (CDK4) | number of time points (CDK7)

O=C1Nc2ccccc2/C1=C/c1ccccn1 [GSK-3β inhibitor 1]
inactive: kinase-Nluc reporter destabilization hit call (RET) 0 | kinase-Nluc reporter destabilization hit call [1] 0 | kinase-Nluc reporter destabilization hit call (RIOK1) 0 | kinase-Nluc reporter destabilization hit call (RIPK1) 0 | kinase-Nluc reporter destabilization hit call (RIPK2) 0 | kinase-Nluc reporter destabilization hit call (ROR2) 0 | kinase-Nluc reporter destabilization hit call (RPS6KA1) 0 | kinase-Nluc reporter destabilization hit call (SPHK1) 0 | kinase-Nluc reporter destabilization hit call (SRC) 0 | kinase-Nluc reporter destabilization hit call (STK24) 0 | kinase-Nluc reporter destabilization hit call (STK38) 0 | kinase-Nluc reporter destabilization hit call (SYK) 0 | kinase-Nluc reporter destabilization hit call (TEC) 0 | kinase-Nluc reporter destabilization hit call (TYK2) 0 | kinase-Nluc reporter destabilization hit call (ULK3) 0 | kinase-Nluc reporter destabilization hit call (YES1) 0 | kinase-Nluc reporter destabilization hit call (ZAK) 0 | kinase-Nluc reporter destabilization hit call (ZAP70) 0
0: number of time points (CDK4)
1: number of time points (CDK7)

O=C(O)c1ccc2c(c1)nc(Nc1cccc(Cl)c1)c1ccncc12 [Silmitasertib (sodium salt)]
inactive: kinase-Nluc reporter destabilization hit call (RET) 0 | kinase-Nluc reporter destabilization hit call [1] 0 | kinase-Nluc reporter destabilization hit call (RIOK1) 0 | kinase-Nluc reporter destabilization hit call (RIPK1) 0 | kinase-Nluc reporter destabilization hit call (RIPK2) 0 | kinase-Nluc reporter destabilization hit call (ROR2) 0 | kinase-Nluc reporter destabilization hit call (RPS6KA1) 0 | kinase-Nluc reporter destabilization hit call (SPHK1) 0 | kinase-Nluc reporter destabilization hit call (SRC) 0 | kinase-Nluc reporter destabilization hit call (STK24) 0 | kinase-Nluc reporter destabilization hit call (STK38) 0 | kinase-Nluc reporter destabilization hit call (SYK) 0 | kinase-Nluc reporter destabilization hit call (TEC) 0 | kinase-Nluc reporter destabilization hit call (TYK2) 0 | kinase-Nluc reporter destabilization hit call (ULK3) 0 | kinase-Nluc reporter destabilization hit call (YES1) 0 | kinase-Nluc reporter destabilization hit call (ZAK) 0 | kinase-Nluc reporter destabilization hit call (ZAP70) 0
0: number of time points (CDK4) | number of time points (CDK7)
